Laboratory results taken from paper doi:10.1101/2024.01.03.574021.
These are yes or no findings as the source states them, for the method shown. In cells and extracts the contact can be indirect. Some entries that bind do so weakly or less than the wild type. Blank lines part the entries; values can stand above or below the molecule they belong to.

Chains of the proteins cited; added tags and fusions are not shown.
UniProt Q04206: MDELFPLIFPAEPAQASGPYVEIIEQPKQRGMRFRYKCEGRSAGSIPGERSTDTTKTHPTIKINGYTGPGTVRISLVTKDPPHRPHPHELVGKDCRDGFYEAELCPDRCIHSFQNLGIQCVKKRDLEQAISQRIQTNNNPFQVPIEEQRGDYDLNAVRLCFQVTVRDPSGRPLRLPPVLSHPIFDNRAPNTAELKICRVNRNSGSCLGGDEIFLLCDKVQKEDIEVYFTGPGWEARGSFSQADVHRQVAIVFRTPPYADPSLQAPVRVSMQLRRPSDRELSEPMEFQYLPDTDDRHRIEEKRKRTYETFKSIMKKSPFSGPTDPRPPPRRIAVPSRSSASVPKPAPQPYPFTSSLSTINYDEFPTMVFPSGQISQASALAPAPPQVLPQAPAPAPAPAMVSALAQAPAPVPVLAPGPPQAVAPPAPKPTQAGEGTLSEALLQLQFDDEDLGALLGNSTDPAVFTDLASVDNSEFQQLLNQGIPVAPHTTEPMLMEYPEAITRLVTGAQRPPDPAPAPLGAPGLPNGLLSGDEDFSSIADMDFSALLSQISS
UniProt P19532: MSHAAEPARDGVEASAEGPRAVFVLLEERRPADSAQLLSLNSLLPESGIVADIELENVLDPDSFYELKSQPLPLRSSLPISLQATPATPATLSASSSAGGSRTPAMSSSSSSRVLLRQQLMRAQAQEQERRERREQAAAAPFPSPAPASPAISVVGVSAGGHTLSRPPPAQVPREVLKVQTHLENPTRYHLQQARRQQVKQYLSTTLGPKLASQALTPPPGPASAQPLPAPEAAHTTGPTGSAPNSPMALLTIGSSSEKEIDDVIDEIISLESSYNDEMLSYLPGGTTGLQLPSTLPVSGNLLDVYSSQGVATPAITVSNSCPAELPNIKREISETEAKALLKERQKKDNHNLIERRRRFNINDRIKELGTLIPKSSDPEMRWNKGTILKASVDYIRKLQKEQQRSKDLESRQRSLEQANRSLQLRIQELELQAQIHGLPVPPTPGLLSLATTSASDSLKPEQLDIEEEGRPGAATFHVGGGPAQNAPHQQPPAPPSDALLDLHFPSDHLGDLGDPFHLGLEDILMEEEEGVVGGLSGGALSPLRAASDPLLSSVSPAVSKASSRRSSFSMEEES

Target: p65 / RELA (endogenous) (human (endogenous in HeLa)) (UniProt Q04206)
Test: proximity ligation

- binding: binds
Molecule: transcription factor E3 (TFE3) (from UniProt P19532 1-575)

- binding: binds
B1: Zinc finger protein GLI-similar 2 (GLIS2) (protein, UniProt Q9BZE0 1-524)
chain: MHSLDEPLDLKLSITKLRAAREKRERTLGVVRPRALHRELGLVDDSPTPGSPGSPPSGFLLNSKFPEKVEGRFSAAPLVDLSLSPPSGLDSPNGSSSLSPERQGNGDLPPVPSASDFQPLRYLDGVPSSFQFFLPLGSGGALHLPASSFLTPPKDKCLSPDLPLPKQLVCRWAKCNQLFELLQDLVDHVNDYHVKPEKDAGYCCHWEGCARHGRGFNARYKMLIHIRTHTNEKPHRCPTCSKSFSRLENLKIHNRSHTGEKPYVCPYEGCNKRYSNSSDRFKHTRTHYVDKPYYCKMPGCHKRYTDPSSLRKHIKAHGHFVSHEQQELLQLRPPPKPPLPAPDGGPYVSGAQIIIPNPAALFGGPGLPGLPLPLAPGPLDLSALACGNGGGSGGGGGMGPGLPGPVLPLNLAKNPLLPSPFGAGGLGLPVVSLLAGAAGGKAEGEKGRGSVPTRALGMEGHKTPLERTESSCSRPSPDGLPLLPGTVLDLSTGVNSAASSPEALAPGWVVIPPGSVLLKPAVVN

- binding: binds
B2: zinc finger and BTB domain containing 5 (ZBTB5) (protein, UniProt O15062 1-677)
chain: MDFPGHFEQIFQQLNYQRLHGQLCDCVIVVGNRHFKAHRSVLAACSTHFRALFSVAEGDQTMNMIQLDSEVVTAEAFAALIDMMYTSTLMLGESNVMDVLLAASHLHLNSVVKACKHYLTTRTLPMSPPSERVQEQSARMQRSFMLQQLGLSIVSSALNSSQNGEEQPAPMSSSMRSNLDQRTPFPMRRLHKRKQSAEERARQRLRPSIDESAISDVTPENGPSGVHSREEFFSPDSLKIVDNPKADGMTDNQEDSAIMFDQSFGTQEDAQVPSQSDNSAGNMAQLSMASRATQVETSFDQEAAPEKSSFQCENPEVGLGEKEHMRVVVKSEPLSSPEPQDEVSDVTSQAEGSESVEVEGVVVSAEKIDLSPESSDRSFSDPQSSTDRVGDIHILEVTNNLEHKSTFSISNFLNKSRGNNFTANQNNDDNIPNTTSDCRLESEAPYLLSPEAGPAGGPSSAPGSHVENPFSEPADSHFVRPMQEVMGLPCVQTSGYQGGEQFGMDFSRSGLGLHSSFSRVMIGSPRGGASNFPYYRRIAPKMPVVTSVRSSQIPENSTSSQLMMNGATSSFENGHPSQPGPPQLTRASADVLSKCKKALSEHNVLVVEGARKYACKICCKTFLTLTDCKKHIRVHTGEKPYACLKCGKRFSQSSHLYKHSKTTCLRWQSSNLPSTLL
